Values quoted from earlier work in patent US6632806B1, “Neurologically-active compounds” (The University of Sydney, priority 1997, dated 2003).

Biological target: GABAC receptors
Conditions: read-out: KD (agonist); cited from earlier work

NCCCC(=O)O [GABA, γ-Aminobutyric acid]
Kd: 1700 nM
